Test results: PMC5179494
Results are given in words; binding and its absence hold for the method and conditions named. Some results given as binding are weak or reduced against the parent protein; the word gives no strength.

Molecular target: T1, Thermus aquaticus toxin (TaqDarT) (Thermus aquaticus) (UniProt P0DV56)
T1 sequence: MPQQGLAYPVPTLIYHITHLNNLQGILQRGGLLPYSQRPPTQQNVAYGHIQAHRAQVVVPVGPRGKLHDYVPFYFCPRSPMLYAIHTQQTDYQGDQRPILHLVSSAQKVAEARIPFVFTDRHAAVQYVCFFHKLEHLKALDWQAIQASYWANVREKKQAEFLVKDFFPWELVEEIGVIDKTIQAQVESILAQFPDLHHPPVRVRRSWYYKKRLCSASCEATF
Experiment: SEC; both purified

B1: Thermus aquaticus antitoxin (TaqDarG) (enzyme, UniProt P0DV57 1-360)
chain: MLRFVRGNLLEAPVEALVNTVNTVGVMGKGVALQFKRAFPDNYQAYVKACERGQVQIGRIFVYDRGPLAQPRYIFNFPTKKHWRHPSRMEYVEEGLKDLVCRIQELRVRSIALPPLGAGNGGLPWPEVKQRIQEALEALEGVEVWVYEPVENPKAHSIVPLKTKPRLTPARAALLKLFGLYGALGEPLGRLEAQKLAYFLQEAGLDLKLDFACKQFGPYAEPLNHVLARLEGHYIQGFGDRTGISQIRLKPQALDEAVLFLADYPKADEAATRAADWVKGFETPYGLELLATVHWAVRHEGARDWASLQKRLQAWNPRKATFPKTHLQVALDALLKRGALRPEEWQDRPPKLPANVAQEA
With B1 the binding was “binds”.
